The other results are listed elsewhere or left out.
How the values were obtained:
Assay in all cases: log2 fold change, soluble protein after heating vs DMSO (PISA); higher = thermal stabilisation; K562 lysate, 10 uM; active = over 0.2 and 3.5 SD of the protein, either way, in both replicates (recomputed)
[1] = compound: CN1CC[C@H](c2c(O)cc(O)c3c(=O)cc(-c4ccccc4Cl)oc23)[C@H](O)C1 [alvocidib]
In short: (§1)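 Thermal stability, expressed as log-two fold change relative to solvent controls, is given from duplicates. Crude K562 extract in PBS pH 7.4 with 1 mM MgCl2, at 1 mg/mL protein, was treated with 10 μM compound for 30 min and heated in aliquots for 3 min across 48°C-58°C. After pooling, adjustment to 0.5% NP-40 at 4°C and centrifugation at 21,000xg for 90 min, supernatant protein was measured by TMTpro 16plex LC-MS/MS with channel sums equalised.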

Chains of the proteins cited; added tags and fusions are not shown. Lines headed by an entry give the natural chain unless they say otherwise; changes in a name come on top.
UniProt Q9Y2I1: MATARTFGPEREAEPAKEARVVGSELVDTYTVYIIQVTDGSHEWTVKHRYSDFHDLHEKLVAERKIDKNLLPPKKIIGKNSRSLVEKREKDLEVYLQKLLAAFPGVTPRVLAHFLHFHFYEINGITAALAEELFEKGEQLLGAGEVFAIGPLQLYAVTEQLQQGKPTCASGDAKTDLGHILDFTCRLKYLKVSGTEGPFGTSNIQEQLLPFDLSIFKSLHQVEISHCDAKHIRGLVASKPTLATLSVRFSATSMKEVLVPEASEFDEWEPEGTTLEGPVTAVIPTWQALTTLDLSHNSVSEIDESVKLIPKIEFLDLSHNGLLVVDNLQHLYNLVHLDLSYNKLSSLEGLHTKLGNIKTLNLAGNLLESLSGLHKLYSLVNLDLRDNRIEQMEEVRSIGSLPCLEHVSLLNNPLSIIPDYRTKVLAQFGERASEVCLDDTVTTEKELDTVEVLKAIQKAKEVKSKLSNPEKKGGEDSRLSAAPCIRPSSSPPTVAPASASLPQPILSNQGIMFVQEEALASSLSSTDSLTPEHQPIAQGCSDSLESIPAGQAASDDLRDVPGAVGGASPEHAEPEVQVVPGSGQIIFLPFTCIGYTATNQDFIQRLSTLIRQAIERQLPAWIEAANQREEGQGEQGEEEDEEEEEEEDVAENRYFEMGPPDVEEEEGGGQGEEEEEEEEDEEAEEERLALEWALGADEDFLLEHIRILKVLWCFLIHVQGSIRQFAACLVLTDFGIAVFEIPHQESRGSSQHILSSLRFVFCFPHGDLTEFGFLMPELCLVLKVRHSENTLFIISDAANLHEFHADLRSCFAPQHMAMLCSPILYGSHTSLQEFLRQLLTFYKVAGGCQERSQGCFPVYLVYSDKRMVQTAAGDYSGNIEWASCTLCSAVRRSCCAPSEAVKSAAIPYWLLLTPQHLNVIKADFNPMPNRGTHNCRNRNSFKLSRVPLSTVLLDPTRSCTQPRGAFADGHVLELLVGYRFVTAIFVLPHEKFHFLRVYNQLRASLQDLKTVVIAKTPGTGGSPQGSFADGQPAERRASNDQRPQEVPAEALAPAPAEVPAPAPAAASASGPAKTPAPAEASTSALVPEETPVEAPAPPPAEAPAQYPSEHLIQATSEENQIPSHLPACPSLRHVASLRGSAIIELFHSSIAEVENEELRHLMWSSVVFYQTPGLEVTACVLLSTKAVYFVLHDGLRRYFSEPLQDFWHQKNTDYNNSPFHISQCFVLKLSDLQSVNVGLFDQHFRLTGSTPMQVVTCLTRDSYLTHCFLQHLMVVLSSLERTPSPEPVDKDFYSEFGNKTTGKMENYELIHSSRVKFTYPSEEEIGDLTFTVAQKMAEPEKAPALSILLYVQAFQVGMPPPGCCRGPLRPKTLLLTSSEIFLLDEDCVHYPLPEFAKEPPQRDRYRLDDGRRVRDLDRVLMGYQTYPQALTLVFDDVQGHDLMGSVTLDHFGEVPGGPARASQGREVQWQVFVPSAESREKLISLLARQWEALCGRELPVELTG
UniProt Q9NYR9: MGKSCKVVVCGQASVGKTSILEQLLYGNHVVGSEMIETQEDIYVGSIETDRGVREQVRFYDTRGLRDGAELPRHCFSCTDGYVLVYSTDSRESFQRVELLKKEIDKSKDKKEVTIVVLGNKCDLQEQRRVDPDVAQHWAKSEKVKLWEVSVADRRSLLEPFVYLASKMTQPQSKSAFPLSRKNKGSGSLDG
UniProt O75306, whole entry, looked up: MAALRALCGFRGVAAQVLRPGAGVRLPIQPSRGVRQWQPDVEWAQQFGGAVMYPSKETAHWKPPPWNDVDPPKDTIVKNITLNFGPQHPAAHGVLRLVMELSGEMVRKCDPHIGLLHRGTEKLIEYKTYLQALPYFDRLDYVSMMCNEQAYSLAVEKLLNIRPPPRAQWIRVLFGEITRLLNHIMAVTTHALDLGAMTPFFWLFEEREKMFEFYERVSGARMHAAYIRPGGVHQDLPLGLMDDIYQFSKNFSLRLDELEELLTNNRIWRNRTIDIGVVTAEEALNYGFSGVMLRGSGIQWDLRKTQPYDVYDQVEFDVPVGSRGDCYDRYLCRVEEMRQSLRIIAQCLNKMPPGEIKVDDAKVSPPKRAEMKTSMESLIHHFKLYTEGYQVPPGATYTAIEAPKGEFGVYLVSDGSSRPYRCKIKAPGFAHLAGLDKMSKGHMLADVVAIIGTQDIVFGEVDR
UniProt O15226: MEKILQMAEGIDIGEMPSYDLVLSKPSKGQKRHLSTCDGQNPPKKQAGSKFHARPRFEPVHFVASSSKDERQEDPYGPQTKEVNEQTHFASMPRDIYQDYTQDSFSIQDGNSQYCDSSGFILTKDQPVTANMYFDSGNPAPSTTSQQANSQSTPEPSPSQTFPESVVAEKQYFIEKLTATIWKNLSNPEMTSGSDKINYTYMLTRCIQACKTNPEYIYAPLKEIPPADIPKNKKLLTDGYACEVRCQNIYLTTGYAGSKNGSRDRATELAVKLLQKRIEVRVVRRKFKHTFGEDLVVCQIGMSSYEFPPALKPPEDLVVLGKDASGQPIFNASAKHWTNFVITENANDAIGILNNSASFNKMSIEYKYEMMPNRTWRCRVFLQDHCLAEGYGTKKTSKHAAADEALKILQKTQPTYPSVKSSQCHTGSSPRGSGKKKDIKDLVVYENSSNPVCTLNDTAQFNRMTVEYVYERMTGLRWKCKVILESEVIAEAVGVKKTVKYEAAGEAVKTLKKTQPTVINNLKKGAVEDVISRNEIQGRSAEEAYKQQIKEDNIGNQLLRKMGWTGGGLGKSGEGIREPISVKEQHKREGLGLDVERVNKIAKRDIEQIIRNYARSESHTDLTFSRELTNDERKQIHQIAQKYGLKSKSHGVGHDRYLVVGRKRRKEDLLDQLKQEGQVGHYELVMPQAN
UniProt P28331, whole entry, looked up: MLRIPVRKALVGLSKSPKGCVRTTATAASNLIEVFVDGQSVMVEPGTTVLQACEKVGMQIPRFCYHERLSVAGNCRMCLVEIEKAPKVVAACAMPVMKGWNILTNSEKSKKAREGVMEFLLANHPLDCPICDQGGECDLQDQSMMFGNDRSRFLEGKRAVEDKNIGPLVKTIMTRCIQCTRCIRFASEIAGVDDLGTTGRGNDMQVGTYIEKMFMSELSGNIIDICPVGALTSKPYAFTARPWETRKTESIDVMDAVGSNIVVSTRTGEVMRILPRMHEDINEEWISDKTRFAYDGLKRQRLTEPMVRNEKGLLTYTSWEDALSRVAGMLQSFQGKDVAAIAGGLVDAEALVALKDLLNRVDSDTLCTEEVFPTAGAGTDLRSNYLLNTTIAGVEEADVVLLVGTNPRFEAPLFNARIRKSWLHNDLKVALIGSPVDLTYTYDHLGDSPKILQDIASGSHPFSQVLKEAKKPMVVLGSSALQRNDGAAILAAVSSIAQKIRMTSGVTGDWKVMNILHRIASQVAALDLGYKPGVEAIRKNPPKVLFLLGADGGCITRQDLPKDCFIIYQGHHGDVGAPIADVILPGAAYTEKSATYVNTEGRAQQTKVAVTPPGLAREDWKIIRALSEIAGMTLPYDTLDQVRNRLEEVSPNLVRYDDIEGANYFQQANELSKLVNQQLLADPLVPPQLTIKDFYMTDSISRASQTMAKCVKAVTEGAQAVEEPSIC
UniProt Q8TDX7: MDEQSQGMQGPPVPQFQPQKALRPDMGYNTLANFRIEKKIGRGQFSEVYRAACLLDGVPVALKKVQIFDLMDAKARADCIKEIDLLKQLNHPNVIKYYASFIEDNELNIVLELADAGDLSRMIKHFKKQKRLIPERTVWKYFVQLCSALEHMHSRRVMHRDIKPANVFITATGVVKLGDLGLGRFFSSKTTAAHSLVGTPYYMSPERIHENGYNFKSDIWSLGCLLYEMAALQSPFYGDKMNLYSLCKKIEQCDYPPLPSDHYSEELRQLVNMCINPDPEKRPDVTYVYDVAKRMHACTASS
UniProt Q8NCF5: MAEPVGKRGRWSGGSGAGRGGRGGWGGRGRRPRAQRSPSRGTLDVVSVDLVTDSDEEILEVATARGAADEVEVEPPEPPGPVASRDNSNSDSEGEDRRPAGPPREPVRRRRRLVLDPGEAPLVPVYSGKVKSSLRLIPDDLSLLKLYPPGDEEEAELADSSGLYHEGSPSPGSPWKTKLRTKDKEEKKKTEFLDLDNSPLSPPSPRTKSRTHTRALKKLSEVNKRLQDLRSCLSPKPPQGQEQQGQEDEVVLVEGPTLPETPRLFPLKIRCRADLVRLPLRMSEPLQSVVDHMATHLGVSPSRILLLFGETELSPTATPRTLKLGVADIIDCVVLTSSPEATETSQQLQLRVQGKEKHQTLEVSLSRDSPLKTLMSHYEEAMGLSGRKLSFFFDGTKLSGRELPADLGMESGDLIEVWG
UniProt Q9BU61: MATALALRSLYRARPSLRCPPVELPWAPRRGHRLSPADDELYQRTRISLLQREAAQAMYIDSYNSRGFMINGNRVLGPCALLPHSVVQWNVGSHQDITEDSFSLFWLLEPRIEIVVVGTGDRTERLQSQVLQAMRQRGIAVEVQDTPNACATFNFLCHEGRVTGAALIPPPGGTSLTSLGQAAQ
UniProt Q96TA1: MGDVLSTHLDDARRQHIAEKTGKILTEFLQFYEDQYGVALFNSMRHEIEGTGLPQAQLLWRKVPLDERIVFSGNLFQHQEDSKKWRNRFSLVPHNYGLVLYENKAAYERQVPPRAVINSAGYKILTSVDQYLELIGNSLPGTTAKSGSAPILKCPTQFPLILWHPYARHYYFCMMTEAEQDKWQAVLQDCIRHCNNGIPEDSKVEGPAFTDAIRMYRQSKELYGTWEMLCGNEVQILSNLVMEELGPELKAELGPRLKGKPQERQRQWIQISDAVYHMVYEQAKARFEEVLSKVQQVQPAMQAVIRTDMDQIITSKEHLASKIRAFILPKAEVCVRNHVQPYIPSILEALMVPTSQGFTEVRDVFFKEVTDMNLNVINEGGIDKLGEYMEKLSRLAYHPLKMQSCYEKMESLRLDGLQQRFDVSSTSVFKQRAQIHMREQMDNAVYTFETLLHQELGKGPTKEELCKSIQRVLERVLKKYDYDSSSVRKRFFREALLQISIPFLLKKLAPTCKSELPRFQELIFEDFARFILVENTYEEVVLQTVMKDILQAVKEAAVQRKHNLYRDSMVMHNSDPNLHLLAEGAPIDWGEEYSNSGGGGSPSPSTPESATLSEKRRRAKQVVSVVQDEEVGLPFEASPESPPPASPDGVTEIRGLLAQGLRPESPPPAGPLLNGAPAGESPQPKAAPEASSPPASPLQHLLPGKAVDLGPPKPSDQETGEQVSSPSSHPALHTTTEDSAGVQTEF
UniProt Q86X76: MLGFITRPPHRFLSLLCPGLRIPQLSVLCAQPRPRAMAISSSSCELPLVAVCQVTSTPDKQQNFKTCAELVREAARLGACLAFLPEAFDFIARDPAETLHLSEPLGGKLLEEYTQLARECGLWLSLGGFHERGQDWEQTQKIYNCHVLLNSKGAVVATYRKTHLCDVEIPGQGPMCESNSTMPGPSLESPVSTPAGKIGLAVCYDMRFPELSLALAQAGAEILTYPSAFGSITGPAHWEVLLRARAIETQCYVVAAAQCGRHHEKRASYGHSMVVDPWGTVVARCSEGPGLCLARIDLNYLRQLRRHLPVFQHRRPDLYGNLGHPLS
UniProt Q9UHB4: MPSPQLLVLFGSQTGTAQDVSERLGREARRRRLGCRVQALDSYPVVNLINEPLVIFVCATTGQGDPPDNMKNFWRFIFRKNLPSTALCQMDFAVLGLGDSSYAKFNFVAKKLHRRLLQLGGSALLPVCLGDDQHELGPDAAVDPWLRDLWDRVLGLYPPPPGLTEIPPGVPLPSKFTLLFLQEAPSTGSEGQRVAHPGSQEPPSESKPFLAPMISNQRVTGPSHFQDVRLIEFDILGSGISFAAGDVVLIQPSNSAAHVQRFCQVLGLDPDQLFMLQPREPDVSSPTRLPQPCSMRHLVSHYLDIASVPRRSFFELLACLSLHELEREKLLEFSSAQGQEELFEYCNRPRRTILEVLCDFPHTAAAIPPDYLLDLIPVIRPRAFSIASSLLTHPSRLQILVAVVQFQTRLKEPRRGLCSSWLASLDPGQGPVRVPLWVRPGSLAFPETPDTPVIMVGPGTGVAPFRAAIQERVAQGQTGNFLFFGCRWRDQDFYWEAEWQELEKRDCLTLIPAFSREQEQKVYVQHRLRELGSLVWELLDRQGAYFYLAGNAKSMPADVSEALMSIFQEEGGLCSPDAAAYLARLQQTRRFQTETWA
UniProt O00217, whole entry, looked up: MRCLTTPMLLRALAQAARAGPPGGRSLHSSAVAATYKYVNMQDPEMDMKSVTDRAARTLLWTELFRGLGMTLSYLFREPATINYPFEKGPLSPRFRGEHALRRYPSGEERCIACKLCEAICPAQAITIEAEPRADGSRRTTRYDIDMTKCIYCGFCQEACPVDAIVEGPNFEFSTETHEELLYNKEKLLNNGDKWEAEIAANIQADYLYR
UniProt O75251, whole entry, looked up: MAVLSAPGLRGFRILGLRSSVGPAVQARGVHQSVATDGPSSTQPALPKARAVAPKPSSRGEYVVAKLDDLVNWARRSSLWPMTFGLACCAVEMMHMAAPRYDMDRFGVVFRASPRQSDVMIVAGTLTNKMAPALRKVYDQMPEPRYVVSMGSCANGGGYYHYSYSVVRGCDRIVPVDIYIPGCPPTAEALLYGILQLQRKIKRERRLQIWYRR

[2] = compound: CN1CCc2c(c3ccccc3n2Cc2ccc(C(=O)NO)cc2)C1 [Tubastatin A]
In short: as §1

[3] = compound: CNC(=O)C1=CC=CC=C1NC2=NC(=NC=C2Cl)NC3=C(C=C(C=C3)N4CCOCC4)OC
In short: as §1

[4] = compound: CNC(=O)c1ccc(Nc2ncc(C(F)(F)F)c(NCc3nccnc3N(C)S(C)(=O)=O)n2)cc1 [defactinib]
In short: as §1

[5] = compound: CNc1nc(-c2ccc3c(N)n[nH]c3c2)cc(N2C[C@@H](C(=O)NC3CCCCC3)CC[C@H]2C)n1
In short: as §1

[6] = compound: COC(=O)N[C@@H](C)CNc1nccc(-c2cn(C(C)C)nc2-c2cc(Cl)cc(NS(C)(=O)=O)c2F)n1 [encorafenib]
In short: as §1

[7] = compound: COC(=O)[C@H](CCSC)NC(=O)C1=C(C=C(C=C1)NC[C@H](CS)N)C2=CC=CC=C2
In short: as §1

[8] = compound: COc1cc(Nc2ncc3c(n2)-c2ccc(Cl)cc2C(c2c(F)cccc2OC)=NC3)ccc1C(=O)O [alisertib]
In short: as §1

[9] = compound: COc1cc2nc(-c3cc(F)ccc3O)nc(N[C@@H]3CNC[C@H]3C(C)(C)O)c2cc1OC
In short: as §1

[10] = compound: COc1cc2ncnc(Nc3ccc(F)c(Cl)c3)c2cc1OCCCN1CCOCC1 [gefitinib]
In short: as §1

Measured: log2 fold change

NISCH (UniProt Q9Y2I1)
inactive: [1] 0.018 | [2] -0.044 | [3] 0.032 | [4] 0.025 | [5] 0.005 | [6] 0.022 | [7] 0.016 | [8] 0.019 | [9] -0.001 | [10] 0.01

NKIRAS2 (UniProt Q9NYR9)
inactive: [1] -0.192 | [2] 0.113 | [3] -0.056 | [4] 0.009 | [5] 0.145 | [6] 0.024 | [7] 0.046 | [8] 0.062 | [9] -0.043 | [10] 0.074

NDUFS2 (UniProt O75306)
inactive: [1] 0.047 | [2] -0.012 | [3] -0.033 | [4] 0.005 | [5] -0.001 | [6] 0.012 | [7] -0.045 | [8] -0.007 | [9] -0.022 | [10] -0.01

NFYC (UniProt Q13952)
inactive: [1] -0.058 | [2] 0.055 | [3] 0.019 | [4] -0.025 | [5] 0.026 | [6] 0.025 | [7] -0.03 | [8] -0.012 | [9] -0.01 | [10] 0.029

NHEJ1 (UniProt Q9H9Q4)
inactive: [1] -0.059 | [2] 0.062 | [3] 0.033 | [4] -0.124 | [5] 0.067 | [6] 0.033 | [7] 0 | [8] 0.017 | [9] 0.022 | [10] -0.199

NKRF isoform 2 (UniProt O15226)
inactive: [1] 0 | [2] -0.095 | [3] -0.025 | [4] -0.071 | [5] 0.103 | [6] 0.027 | [7] -0.01 | [8] -0.038 | [9] -0.043 | [10] -0.034

NHLRC2 (UniProt Q8NBF2)
inactive: [1] -0.019 | [2] -0.063 | [3] -0.021 | [4] -0.006 | [5] 0 | [6] 0.013 | [7] 0.057 | [8] 0.014 | [9] 0.004 | [10] 0.001

NEK1 isoform 3 (UniProt Q96PY6)
inactive: [1] 0.002 | [2] -0.078 | [3] -0.018 | [4] 0.014 | [5] -0.003 | [6] -0.005 | [7] 0.038 | [8] -0.052 | [9] -0.078 | [10] -0.044

NDUFA4 (UniProt O00483)
inactive: [1] 0.022 | [2] 0.055 | [3] 0.054 | [4] 0.143 | [5] 0.004 | [6] 0.028 | [7] 0.009 | [8] 0.055 | [9] -0.079 | [10] -0.133

NDUFS1 isoform 2 (UniProt P28331)
inactive: [1] 0.008 | [2] -0.018 | [3] -0.024 | [4] 0.028 | [5] 0.014 | [6] -0.011 | [7] 0.05 | [8] 0.03 | [9] -0.025 | [10] -0.001

NDRG2 (UniProt Q9UN36)
inactive: [1] 0.006 | [2] 0.018 | [3] -0.014 | [4] 0.025 | [5] 0.027 | [6] -0.028 | [7] -0.037 | [8] -0.056 | [9] -0.008 | [10] 0

Six consecutive records from above, quoted:
NKRF isoform 2 (UniProt O15226)
inactive: [1] 0 | [2] -0.095 | [3] -0.025 | [4] -0.071 | [5] 0.103 | [6] 0.027 | [7] -0.01 | [8] -0.038 | [9] -0.043 | [10] -0.034

NHLRC2 (UniProt Q8NBF2)
inactive: [1] -0.019 | [2] -0.063 | [3] -0.021 | [4] -0.006 | [5] 0 | [6] 0.013 | [7] 0.057 | [8] 0.014 | [9] 0.004 | [10] 0.001

NEK1 isoform 3 (UniProt Q96PY6)
inactive: [1] 0.002 | [2] -0.078 | [3] -0.018 | [4] 0.014 | [5] -0.003 | [6] -0.005 | [7] 0.038 | [8] -0.052 | [9] -0.078 | [10] -0.044

NDUFA4 (UniProt O00483)
inactive: [1] 0.022 | [2] 0.055 | [3] 0.054 | [4] 0.143 | [5] 0.004 | [6] 0.028 | [7] 0.009 | [8] 0.055 | [9] -0.079 | [10] -0.133

NDUFS1 isoform 2 (UniProt P28331)
inactive: [1] 0.008 | [2] -0.018 | [3] -0.024 | [4] 0.028 | [5] 0.014 | [6] -0.011 | [7] 0.05 | [8] 0.03 | [9] -0.025 | [10] -0.001

NDRG2 (UniProt Q9UN36)
inactive: [1] 0.006 | [2] 0.018 | [3] -0.014 | [4] 0.025 | [5] 0.027 | [6] -0.028 | [7] -0.037 | [8] -0.056 | [9] -0.008 | [10] 0

(continued)

NEK7 (UniProt Q8TDX7)
inactive: [1] -0.055 | [2] -0.113 | [4] 0.007 | [5] -0.013 | [6] 0 | [7] 0.003 | [8] 0.038 | [9] 0.057 | [10] -0.049
active: [3] 0.552

NFATC2IP (UniProt Q8NCF5)
active: [7] -0.208
inactive: [1] -0.015 | [2] 0.002 | [3] 0.052 | [4] 0 | [5] 0.002 | [6] 0.003 | [8] -0.009 | [9] -0.001 | [10] 0.023

NDUFS5 (UniProt O43920)
inactive: [1] 0.024 | [2] 0.029 | [3] 0.006 | [4] 0.017 | [5] 0.053 | [6] 0.004 | [7] 0.048 | [8] 0.003 | [9] 0.013 | [10] -0.042

NDUFAF3 (UniProt Q9BU61)
inactive: [1] -0.008 | [2] -0.05 | [3] 0 | [4] 0.048 | [5] -0.021 | [6] 0.03 | [7] -0.046 | [8] -0.003 | [9] -0.076 | [10] -0.001

NFATC1 (UniProt O95644)
inactive: [1] -0.024 | [2] -0.138 | [3] 0.124 | [4] -0.012 | [5] -0.031 | [6] -0.071 | [7] 0.048 | [8] -0.025 | [9] 0.001 | [10] 0.027

NDUFV3 isoform 2 (UniProt P56181)
inactive: [1] -0.026 | [2] 0.043 | [3] -0.008 | [4] -0.01 | [5] 0.026 | [6] -0.005 | [7] -0.045 | [8] -0.002 | [9] 0.023 | [10] -0.007

NIBAN2 (UniProt Q96TA1)
inactive: [1] 0.034 | [2] -0.009 | [3] 0.005 | [4] 0.005 | [5] 0.01 | [6] 0.024 | [7] -0.046 | [8] 0.004 | [9] 0.009 | [10] 0.015

NIP7 (UniProt Q9Y221)
inactive: [1] -0.007 | [2] -0.002 | [3] 0.048 | [4] -0.015 | [5] -0.02 | [6] 0.044 | [7] -0.058 | [8] 0.017 | [9] -0.01 | [10] -0.037

NFKBIE (UniProt O00221)
inactive: [1] -0.068 | [2] 0.029 | [3] 0.055 | [4] 0.054 | [5] 0.013 | [6] 0.038 | [7] -0.14 | [8] 0.047 | [9] -0.03 | [10] 0.014

NELFE (UniProt P18615)
inactive: [1] -0.062 | [2] 0.034 | [3] -0.008 | [4] 0.013 | [5] -0.007 | [6] 0.015 | [7] -0.031 | [8] 0.034 | [9] -0.013 | [10] -0.044

NDUFAF1 (UniProt Q9Y375)
inactive: [1] 0.004 | [2] 0.051 | [3] -0.02 | [4] 0.021 | [5] 0.037 | [6] -0.022 | [7] -0.008 | [8] -0.006 | [9] 0.029 | [10] -0.101

NIT1 (UniProt Q86X76)
inactive: [1] 0.02 | [2] 0.032 | [3] 0.038 | [4] -0.025 | [5] 0.119 | [6] 0.027 | [7] -0.002 | [8] 0.011 | [9] 0.027 | [10] 0.05

NDOR1 isoform 2 (UniProt Q9UHB4)
inactive: [1] -0.006 | [2] 0.005 | [3] 0.032 | [4] 0.042 | [5] 0.003 | [6] 0.011 | [7] -0.067 | [8] -0.043 | [9] 0.036 | [10] -0.031

NIPSNAP1 (UniProt Q9BPW8)
inactive: [1] -0.005 | [2] -0.028 | [3] 0.075 | [4] -0.029 | [5] 0.035 | [6] -0.039 | [7] 0.042 | [8] -0.022 | [9] -0.094 | [10] -0.051

NDUFS8 (UniProt O00217)
inactive: [1] 0.038 | [2] 0.014 | [3] -0.033 | [4] 0.006 | [5] -0.03 | [6] 0.02 | [7] 0.061 | [8] 0.033 | [9] -0.083 | [10] -0.027

NDUFS7 (UniProt O75251)
inactive: [1] 0.01 | [2] -0.042 | [3] -0.05 | [4] -0.006 | [5] -0.058 | [6] 0.007 | [7] 0.006 | [8] 0.074 | [9] -0.022 | [10] -0.01

NIPBL (UniProt Q6KC79)
inactive: [1] -0.008 | [2] -0.183 | [3] -0.04 | [4] 0.006 | [5] 0 | [6] 0.008 | [7] 0.09 | [8] -0.066 | [9] 0.035 | [10] 0.027

NDUFC2 (UniProt O95298)
inactive: [1] 0.014 | [2] 0.036 | [3] -0.017 | [4] -0.007 | [5] 0.099 | [6] 0.007 | [7] -0.028 | [8] -0.036 | [9] -0.016 | [10] 0.024

NEDD1 isoform 3 (UniProt Q8NHV4)
inactive: [1] -0.03 | [2] -0.017 | [3] 0.073 | [4] 0.001 | [5] 0.005 | [6] 0.068 | [7] -0.034 | [8] -0.032 | [9] 0.02 | [10] 0.032

— the supplement of paper PMC10849652
